{"source": "PubChem BioAssay AID1259308 (NCATS, 2017)", "test": "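Candidate targets for better recombinant protein yield in mammalian cells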 (primary screen)", "cells": "human HEK293 embryonic kidney cells stably expressing firefly luciferase (HEK-CMV-Luc2-Hygro)", "knock-down reagent": "single siRNA against human genes, 0.8 pmol siRNA per well", "duration": "72 h", "measured": "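Luciferase light (ONE-Glo) measured on one replicate plate set and viability (CellTiter-Glo) on the other, scaled to a negative control siRNA, with robust z-scores and luciferase per cell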", "scale": "total luciferase, z-score and total luciferase, % of control: higher = more reporter protein produced", "hit rule": "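Active when the median/MAD z-score for overall luciferase is greater than 3; a gene was taken forward for validation with new siRNAs if at least two of its three siRNAs passed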", "calls": "active = raised luciferase; inactive = no rise", "note": "In all, the deposit lists about 59,000 reagents; this is a random part of them. In the full data, about 1,510 (2.6%) got an active call. 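Calls use total luciferase alone and ignore viability, so some active siRNAs may act by altering cell number.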 The numbers tell different reagents against one gene apart. Not all columns of the deposit are shown."}
{"gene knocked down": "ALKBH5 (alkB homolog 5, RNA demethylase)", "reagent": 1, "total luciferase, z-score": 1.99, "total luciferase, % of control": 121, "activity call": "inactive"}
{"gene knocked down": "ALKBH5 (alkB homolog 5, RNA demethylase)", "reagent": 2, "total luciferase, z-score": 0.151, "total luciferase, % of control": 84.9, "activity call": "inactive"}
{"gene knocked down": "ALKBH5 (alkB homolog 5, RNA demethylase)", "reagent": 3, "total luciferase, z-score": -0.173, "total luciferase, % of control": 78.4, "activity call": "inactive"}
{"gene knocked down": "TGDS (TDP-glucose 4,6-dehydratase)", "reagent": 1, "total luciferase, z-score": 0.182, "total luciferase, % of control": 85.5, "activity call": "inactive"}
{"gene knocked down": "TGDS (TDP-glucose 4,6-dehydratase)", "reagent": 2, "total luciferase, z-score": 1.47, "total luciferase, % of control": 111, "activity call": "inactive"}
{"gene knocked down": "TGDS (TDP-glucose 4,6-dehydratase)", "reagent": 3, "total luciferase, z-score": -1.56, "total luciferase, % of control": 50.8, "activity call": "inactive"}

2 consecutive reagents from above, quoted:
{"gene knocked down": "TGDS (TDP-glucose 4,6-dehydratase)", "reagent": 1, "total luciferase, z-score": 0.182, "total luciferase, % of control": 85.5, "activity call": "inactive"}
{"gene knocked down": "TGDS (TDP-glucose 4,6-dehydratase)", "reagent": 2, "total luciferase, z-score": 1.47, "total luciferase, % of control": 111, "activity call": "inactive"}

The list goes on:
{"gene knocked down": "OR6M1 (olfactory receptor family 6 subfamily M member 1)", "reagent": 1, "total luciferase, z-score": -0.705, "total luciferase, % of control": 67.9, "activity call": "inactive"}
{"gene knocked down": "OR6M1 (olfactory receptor family 6 subfamily M member 1)", "reagent": 2, "total luciferase, z-score": 1.2, "total luciferase, % of control": 106, "activity call": "inactive"}
{"gene knocked down": "OR6M1 (olfactory receptor family 6 subfamily M member 1)", "reagent": 3, "total luciferase, z-score": 0.691, "total luciferase, % of control": 95.6, "activity call": "inactive"}
{"gene knocked down": "FCGBP (Fc gamma binding protein)", "reagent": 1, "total luciferase, z-score": -0.613, "total luciferase, % of control": 69.7, "activity call": "inactive"}
{"gene knocked down": "FCGBP (Fc gamma binding protein)", "reagent": 2, "total luciferase, z-score": 3.52, "total luciferase, % of control": 152, "activity call": "active"}
{"gene knocked down": "FCGBP (Fc gamma binding protein)", "reagent": 3, "total luciferase, z-score": 0.369, "total luciferase, % of control": 89.2, "activity call": "inactive"}
